# The campaign covered roughly 290,000 compounds. About 370 (0.13%) were called active. Inconclusive means that the source gave no clear call. Such entries were picked first, then a sample of the others.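 Rule for the calls: active = spots per cell inhibited over 60%, with over 100 cells counted and total cytoplasm intensity under 500,000; inconclusive = wells with under 100 cells, flagged as likely toxic; inactive = the rest.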
# The chains behind the UniProt entries cited, without tags or fusion partners. Where a name states a change or a piece, a line headed by the entry shows the natural chain unless it says otherwise.
# UniProt Q9Y2T6: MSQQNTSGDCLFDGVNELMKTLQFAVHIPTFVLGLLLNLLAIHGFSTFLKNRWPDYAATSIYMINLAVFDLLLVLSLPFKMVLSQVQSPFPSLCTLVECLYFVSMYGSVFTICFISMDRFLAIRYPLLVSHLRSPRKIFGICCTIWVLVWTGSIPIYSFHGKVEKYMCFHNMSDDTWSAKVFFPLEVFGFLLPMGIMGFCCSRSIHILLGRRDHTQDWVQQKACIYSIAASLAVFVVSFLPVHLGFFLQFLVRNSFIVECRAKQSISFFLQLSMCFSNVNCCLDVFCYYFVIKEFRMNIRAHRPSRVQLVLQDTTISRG
# Biological target: G-protein coupled receptor 55 (Homo sapiens) (UniProt Q9Y2T6)
# Assay: inhibition of LPI-stimulated GPR55 beta-arrestin translocation – imaging, U2OS, beta-arrestin-GFP, LPI agonist, primary screen (AID 2013);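 note: U2OS cells stably carrying GPR55 and arrestin-GFP stimulated by 5 µM LPI near EC80; imaged beta-arrestin-GFP aggregate spots per cell after agonist stimulation; plate controls were LPI-stimulated DMSO wells for no effect and DMSO wells without LPI for full effect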
# Details: LPI antagonism, at 10 µM, hits give high values
row,Structure (SMILES),inhibition
1,CC1OC(OC2C(OC3C(O[C@H]4CC[C@]5(C)C6C=C[C@]78OC[C@@]9(CC[C@@H](C)[C@H](C)C97)[C@H](O)C[C@@]8(C)[C@]6(C)CC[C@H]5C4(C)C)OC(C)C(O)C3O)OC(CO)C(O)C2O)C(O)C(O)C1O (some centres not stated),inconclusive: 83.7%
2,C=CCn1c(SC(C)C(=O)NC2(C#N)CCCCC2)nnc1-c1ccc(OC)cc1 (configuration not stated),inconclusive: 103%
3,CN(CC(=O)Nc1ccccc1Oc1ccccc1)Cc1ccccc1F,active: 80.5%
4,CCN1/C(=C/c2ccc3cccc(C)c3[n+]2CC)Sc2ccccc21,inconclusive: 103%
5,CN(Cc1ccccc1)C(=O)CCC1CCN(C(=O)CC2=CCCCC2)CC1,inactive: 0.7%
6,N=C1SCC(=O)N1c1ncc(Cc2cccc(Cl)c2)s1,active: 98.9%
7,Cc1ccccc1N=Nc1c(C)[nH]n(C(N)=S)c1=O,active: 93.2%
8,c1ccc(CN2CCC(Nc3nc(-c4cccs4)nc4ccccc34)CC2)cc1,active: 84.6%
9,O=C(c1cc2cc(Br)ccc2o1)N1CCN(c2ccccc2)CC1,inactive: 5.9%
10,COCCCNC(=O)c1ccc2c3c(onc13)-c1ccccc1C2=O,active: 84.1%
11,CCOC(=O)CC1C(=O)NCCN1c1nc2ccc(C)cn2c(=O)c1/C=C1\SC(=S)N(C(C)CC)C1=O (configuration not stated),active: 70.2%
12,CN1C(=O)/C(=C\c2ccccc2OCc2ccccc2)SC1=S,inactive: -1.8%
13,N#CCc1c(C#N)c(N)nc(Nc2ccccc2)c1C#N,inactive: 1.4%
14,Cc1nn(C)c(C)c1C(C)NC(=O)c1ccc(OC2CCN(Cc3ccccn3)CC2)cc1 (configuration not stated),inconclusive: 103%
15,CC(C)(C)C(=O)/C=c1\s/c(=C\c2ccc(-c3ccc([N+](=O)[O-])cc3)o2)c(=O)n1CC(=O)NC(N)=O,inconclusive: 102%
16,COc1ccc2[nH]c(=O)c(COC(=O)c3ccco3)cc2c1,inactive: -0.6%
17,c1ccc(Nc2nc(NCc3ccco3)c3ccccc3n2)cc1,active: 73.7%
18,COc1cc2[nH]c(=O)n(CCCCCC(=O)NCCc3c[nH]c4ccccc34)c(=O)c2cc1OC,inconclusive: 103%
19,COCCN(C(=O)c1cc(OC)c(OC)c(OC)c1)c1c(N)n(Cc2ccccc2)c(=O)[nH]c1=O,inconclusive: 103%
20,COc1cc(NC(=O)N2c3ccccc3Sc3ccccc32)c(C(=O)O)cc1OC,inconclusive: 105%
21,Clc1ccccc1OCCn1ccnc1,inactive: 1.9%
22,O=C(NCCc1ccccc1)c1ccc(-c2ccc(F)cc2)o1,inconclusive: 48.4%

row,Structure (SMILES),inhibition
1,COCCn1c(C)c(C(=O)O)sc1=S,inconclusive: 103%
2,N=c1oc2c3c4c(cc2cc1C(=O)Nc1ccccc1)CCCN4CCC3,inconclusive: 102%
3,CCCCN(C)C1=CC2=CC(=C(C#N)C#N)CCC2CC1 (configuration not stated),inconclusive: 81.8%
4,C#CCNC(=O)C1=C[C@@H](c2csc3ccccc23)[C@H](CCCO)[C@@H](OCC)O1,inactive: 14.1%
5,O=C(O)CNS(=O)(=O)c1ccc(-c2ccccc2)cc1,active: 75.2%
6,COc1ccc2c(c1)NC(c1ccc(N(C)C)cc1)c1cccn1-2 (configuration not stated),active: 67%
7,N#C/C(=C/c1ccc(N2CCCCC2)o1)C(=O)Nc1ccc2ccccc2c1,inconclusive: 101%
8,CCOC(=O)N1CCC(N(CCN(C)C)C(=S)Nc2cccc(OC)c2)CC1,inconclusive: 88%
9,Clc1nc(CN2CCCCC2)nc2sc3c(c12)CCCC3,active: 61.4%
10,CC(C)C[C@@H](CSc1ccccc1)N1CCN(CC(C)C)CCC1=O,inconclusive: -1.7%
11,O=C(Nc1ccc(Nc2ccccc2)cc1)c1ccc(Cl)c([N+](=O)[O-])c1,inactive: 12%
12,COc1ccc(OC)c(C2C3CN(C(C)C)CC=C3C(C#N)=C(N)C2(C#N)C#N)c1 (configuration not stated),inconclusive: 78.5%
13,Cc1ccc2[nH]c(C)c(/C=C/c3cc[n+](C)cc3)c2c1,inconclusive: 69.1%
14,COc1ccc2oc(C(=O)OCC(=O)NC(C)c3ccccc3)c(C)c2c1 (configuration not stated),inactive: -1.9%
15,CCN1/C(=C/C(C)=C/c2sc3ccccc3[n+]2CC)Sc2ccccc21,inconclusive: 60.4%
16,Cc1c(C(=O)OCC(=O)NC(C)c2ccccc2)oc2ccccc12 (configuration not stated),inconclusive: 85.8%
17,COc1ccc(S(=O)(=O)Nc2ccc(S(=O)(=O)Nc3ccc(F)cc3)cc2)cc1C,inactive: 17.8%
18,C=CCN1C=CC(=CC=C(C#N)C#N)C=C1,active: 67.9%
19,Cc1nc(N2CCN(C(=O)c3cccs3)CC2)c2c3c(sc2n1)CCCC3,inactive: 36.3%
20,C=CCc1c(C)nc(-c2ccccc2)nc1N/N=C(\C)c1ccccc1,inactive: 8.1%
21,O=[N+]([O-])c1c(Nc2cccc(O)c2)cc(Cl)c2nonc12,active: 77.1%
22,CC(=O)Nc1cccc(C(=O)OCC(=O)c2ccccc2Cl)c1,inactive: -0.6%

# Ordered by count of non-hydrogen atoms (smallest number first): some entries from above
row,Structure (SMILES),inhibition
6,N=C1SCC(=O)N1c1ncc(Cc2cccc(Cl)c2)s1,active: 98.9%
9,Clc1nc(CN2CCCCC2)nc2sc3c(c12)CCCC3,active: 61.4%
22,CC(=O)Nc1cccc(C(=O)OCC(=O)c2ccccc2Cl)c1,inactive: -0.6%
16,Cc1c(C(=O)OCC(=O)NC(C)c2ccccc2)oc2ccccc12 (configuration not stated),inconclusive: 85.8%
19,COCCN(C(=O)c1cc(OC)c(OC)c(OC)c1)c1c(N)n(Cc2ccccc2)c(=O)[nH]c1=O,inconclusive: 103%

# (list continues)

row,Structure (SMILES),inhibition
1,Cc1cc(C)n(-c2cc(N3CCN(S(=O)(=O)c4ccc5ccccc5c4)CC3)ccc2[N+](=O)[O-])n1,inconclusive: 30.9%
2,COc1ccc(OC)c(NC(=O)C2CCCN2C(=O)NC2CCCCC2)c1 (configuration not stated),inconclusive: 22.4%
3,Cc1ccc(Cn2c(=N)n(CC(=O)c3ccc([N+](=O)[O-])cc3)c3ccccc32)cc1,inactive: 44.2%
4,CCC(=O)NC(c1ccccc1)c1c(OC(C)=O)ccc2ccccc12 (configuration not stated),inactive: 9.1%
5,CC[n+]1c(/C=C/c2ccc(N(C)C)cc2)ccc2ccccc21,inactive: -0.1%
6,CCOC(=O)c1cc(CC)sc1NC(=O)CCC(=O)O,inconclusive: -91.3%
7,CCc1ccc(CN2CCC(n3nccc3NC(=O)c3ccccc3C)CC2)cc1,inconclusive: 67.4%
8,CC[n+]1c(/C=C/C=C/N(C(C)=O)c2ccccc2)sc2ccccc21,inconclusive: 102%
9,Cc1ccc(NC2(C(F)(F)F)N=C(c3ccccc3)NC2=O)nc1 (configuration not stated),active: 87%
10,CCc1ccc(Nc2n[n+](-c3ccccc3)c(-c3ccc(N(CC)CC)cc3)s2)cc1,inconclusive: 98.2%
11,N=c1n(CC(=O)c2ccc([N+](=O)[O-])cc2)c2ccccc2n1Cc1ccccc1,active: 64.5%
12,CCOc1cc(/C=C/c2nc3ccccc3c(=O)[nH]2)ccc1O,inconclusive: 43.6%
13,N#CC1=C2SCCN2C(=O)C(C#N)C12CCCCC2 (configuration not stated),inconclusive: 104%
14,Oc1ccc(C2=NN(c3ccccc3)C(c3ccc(F)cc3)C2)cc1 (configuration not stated),active: 60.3%
15,O=C1S/C(=C\c2ccc(N3CCOCC3)o2)C(=O)N1Cc1c(F)cccc1Cl,inconclusive: 98.3%
16,CCN1CCc2c(sc(NC(=O)Nc3ccc(Cl)c(Cl)c3)c2C(N)=O)C1,inconclusive: 99.3%
17,S=C(Cc1cccnc1)N1CCOCC1,inconclusive: 90.4%
18,CN1C=CC2=C(C#N)C(N)C(C#N)(C#N)C(c3ccccc3)C2C1 (configuration not stated),inconclusive: 57.6%
19,O=C(CN(c1ccc(Cl)cc1)S(=O)(=O)c1ccc(Cl)c([N+](=O)[O-])c1)NCCc1ccc(F)cc1,inactive: 7.2%
20,Cc1ccc2c(c1)N(CC(=O)N1CCC(C)CC1)C(=O)c1cccnc1O2,inconclusive: -19.9%
21,CCOC(=O)c1[nH]c2ccc(Cl)cc2c1NC(=O)/C=C/c1ccc2c(c1)OCO2,inactive: -10.3%
22,CCOC(=O)c1cc2c(=O)n3cccc(C)c3nc2n(Cc2ccccc2Cl)c1=N,active: 85.6%

row,Structure (SMILES),inhibition
1,COc1cccc(C(c2nnnn2Cc2ccco2)N2CCN(c3cccc(C)c3C)CC2)c1OC (configuration not stated),active: 99.7%
2,Cc1ccc(CSc2[nH]c(=O)ncc2C)cc1,inconclusive: 103%
3,Cn1c(=O)n(C)c2cc(CNc3ccc(N4CCOCC4)c(C(=O)O)c3)ccc21,inconclusive: 103%
4,CC(C)CSC1=NSC2=NC(=O)/C(=C\c3coc4ccccc4c3=O)C(=N)N12,inconclusive: 84.9%
5,CCc1ccccc1NC(=O)C1C2C=CC(O2)C1C(=O)O (configuration not stated),inconclusive: -56.9%
6,CC(Oc1ccc(Br)cc1)C(=O)O/N=C(\N)c1ccncc1 (configuration not stated),inconclusive: 86.5%
7,CC1CCCC(NC(=O)COC(=O)c2cc(S(=O)(=O)N3CCCCC3)ccc2N2CCOCC2)C1C (configuration not stated),inconclusive: 104%
8,CN1CC=C2C(C#N)=C(N)C(C#N)(C#N)C(c3cccc(Cl)c3Cl)C2C1 (configuration not stated),inconclusive: 76.5%
9,CCCCCn1c(CNC(C)=O)nc2ccccc21,inactive: 2.6%
10,C=CCc1ccccc1OCC(O)CN1CCN(c2ccccc2OC)CC1 (configuration not stated),inconclusive: 103%
11,CCN1CC=C2C(C#N)=C(N)C(C#N)(C#N)[C@H](c3ccoc3)[C@H]2C1,inconclusive: 84.1%
12,CC(C)N1CC=C2C(C#N)=C(N)C(C#N)(C#N)[C@H](c3ccoc3)[C@H]2C1,inconclusive: 91.1%
13,CCN(CC(O)CON=C1c2ccccc2-c2ccccc21)S(=O)(=O)c1ccc(C)cc1 (configuration not stated),active: 89.1%
14,O=C(O)c1ccc2c(c1)S(=O)(=O)N=C1CCCCCN12,inactive: 16.8%
15,COC(=O)c1ccc(C#Cc2ccccc2)o1,inactive: -12.1%
16,CCN(CC)c1ccc2cc(-c3nc4ccccc4[nH]3)c(=O)oc2c1,inconclusive: 102%
17,O=C(O)c1cc(-c2ccc(/C=C3/SC(=S)N(Cc4ccccc4)C3=O)o2)ccc1Cl,active: 61.2%
18,N#C/C(=C\c1ccc(N2CCOCC2)o1)C(=O)Nc1ccc(O)cc1,inactive: -2.9%
19,CCOc1cc(N(CC)CC)ccc1/C=C(/C#N)c1nc2ccccc2[nH]1,inconclusive: 83.1%
20,CCc1nnc(NS(=O)(=O)c2ccc(NC(=O)/C=C/c3ccc(F)cc3)cc2)s1,inactive: 1.5%
21,O=S(=O)(c1ccc(F)cc1)N1CCCc2ccccc21,active: 93.9%

# Source: PubChem BioAssay AID2013 (Sanford-Burnham Center for Chemical Genomics, 2009)
